Screen size: about 580,000 compounds; about 6,100 (1.1%) were called active. Inconclusive results, whose numbers are uncertain, are shown with a selection of clear calls. Calls come from the whole dose curve; as a rule, active = well fitted inhibition curve with a large enough effect; inconclusive = small, poorly fitted or top-dose-only effect, or another doubt; inactive = no such curve, though single readings can be large or run the other way. Where the call is inconclusive, the potency comes from a doubtful curve fit.
Biological target: Polyunsaturated fatty acid lipoxygenase ALOX12 (Homo sapiens) (UniProt P18054)
Test: Primary qHTS assay for inhibitors of human arachidonate 12S-lipoxygenase (ALOX12): Round 2
Details: purified 12hLO, xylenol orange hydroperoxide absorbance; series mostly up to 108 µM
Procedure, shortened: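 Purified human 12hLO at 150 nM in 25 mM Hepes, 0.01% Triton X-100, pH 7.0, preincubated 15 min at room temperature with compound. Reaction started with 40 uM arachidonic acid, 30 min at room temperature. Hydroperoxide measured by Fe-xylenol orange, 573/405 nm absorbance ratio.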
Potency is the fitted concentration of half-maximal effect.

The chains behind the UniProt entries cited, without tags or fusion partners. Where a name states a change or a piece, a line headed by the entry shows the natural chain unless it says otherwise.
UniProt P18054: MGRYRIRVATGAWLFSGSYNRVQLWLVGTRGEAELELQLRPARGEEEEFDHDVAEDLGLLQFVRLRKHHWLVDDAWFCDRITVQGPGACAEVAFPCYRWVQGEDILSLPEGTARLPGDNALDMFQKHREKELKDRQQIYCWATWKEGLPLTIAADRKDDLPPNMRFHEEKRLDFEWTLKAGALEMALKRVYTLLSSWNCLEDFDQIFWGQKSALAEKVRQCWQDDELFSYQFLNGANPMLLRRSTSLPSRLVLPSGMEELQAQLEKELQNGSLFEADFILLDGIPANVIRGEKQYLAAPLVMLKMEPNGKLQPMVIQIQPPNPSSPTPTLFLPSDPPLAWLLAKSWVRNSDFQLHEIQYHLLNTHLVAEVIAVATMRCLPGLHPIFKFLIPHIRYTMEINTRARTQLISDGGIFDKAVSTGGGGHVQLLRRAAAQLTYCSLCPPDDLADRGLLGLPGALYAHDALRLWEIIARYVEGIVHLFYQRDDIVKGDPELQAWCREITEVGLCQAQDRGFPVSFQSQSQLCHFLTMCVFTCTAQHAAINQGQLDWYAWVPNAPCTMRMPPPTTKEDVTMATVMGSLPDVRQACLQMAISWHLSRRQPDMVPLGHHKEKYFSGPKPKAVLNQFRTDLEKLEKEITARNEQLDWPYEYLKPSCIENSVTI

| Compound | Potency |
| --- | --- |
| Cc1ccc(N/N=C/c2ccc(F)c(F)c2)cc1Cl | inconclusive: 4.47 µM [inhibitor, full curve, poor fit] |
| C=CCC(C)(NCc1ccccc1)c1cccs1 (stereo not given) | inconclusive: 56.2 µM [inhibitor, partial curve, poor fit] |
| Cc1cccc(-n2c(O)c(C=Nc3ccccc3-c3n[nH]c(=S)[nH]c3=O)c3ccccc3c2=O)n1 | inconclusive: 28.2 µM [inhibitor, partial curve, poor fit] |
| O=C1OC[C@@H]2CCN(Cc3ccc(Cl)cc3)Cc3ccc(F)cc3N12 | inconclusive: 112 µM [inhibitor, partial curve, poor fit] |
| CCCCn1c(N)c(N(CC(C)C)C(=O)c2cc(-c3ccccc3)nc3ccccc23)c(=O)[nH]c1=O | inconclusive: 112 µM [inhibitor, partial curve, poor fit] |
| C=CCNC(=S)/N=c1/ccccn1C | inconclusive: 1.58 µM [inhibitor, full curve, poor fit] |
| Cc1nn(Cc2ccc(C(=O)Nc3ccc(C(=O)OC(C)C)cc3)o2)c(C)c1Cl | inconclusive: 44.7 µM [inhibitor, partial curve, poor fit] |
| Cc1ccccc1-c1nc2c(c(SCc3cccc(Cl)c3)n1)Cc1c(CO)cnc(C)c1O2 | inconclusive: 100 µM [inhibitor, partial curve, poor fit] |
| C[C@@H]1C(=O)O[C@@H]2[C@H](O)C34[C@H]5C[C@@H](C(C)(C)C)C36[C@H](OC(=O)[C@@H]6O)OC4(C(=O)O5)[C@@]12O (stereo not given in full) | inconclusive: 112 µM [inhibitor, partial curve, poor fit] |
| Cn1cccc1C(=O)N[C@H]1C[C@@H]2C(=O)N[C@H]3CCN(C(=O)Cc4cccs4)[C@@H]3C(=O)N2C1 | inconclusive: 44.7 µM [inhibitor, partial curve] |
| Cc1cccc(C)c1N=Nc1c(C)cc(O)cc1C | inactive |
| O=C(Nc1ccccc1Cl)c1cc(C2CCCN(C(=O)CCCc3ccccc3)C2)on1 (stereo not given) | inactive |
| O=C1C2CCCN2C(=S)N1c1ccc(Cl)cc1 (stereo not given) | inconclusive: 89.1 µM [inhibitor, partial curve, poor fit] |
| C=CC1=C2C=C(C3CC3)N(CCCN(CC)CC)C=C2C(=O)C(C)(OC(=O)c2ccco2)C1=O (stereo not given) | inconclusive: 63.1 µM [inhibitor, partial curve, poor fit] |
| CN1CCCC2(CC1)CCN(C(=O)c1c3c(nn1C)CCCC3)CC2 | inactive |
| CCOC(=O)C1=C(C)Nc2nc(SCc3ccccc3C)nn2C1c1cccs1 (stereo not given) | inactive |
| Cc1ccc(-c2cc(C(=O)N3CCN(c4ncccn4)CC3)c3ccccc3n2)cc1 | inconclusive: 3.98 µM [inhibitor, full curve, poor fit] |
| COc1ccc(-c2n[nH]c3c2C(c2ccc(Cl)cc2Cl)NC3=O)cc1 (stereo not given) | inconclusive: 50.1 µM [inhibitor, partial curve, poor fit] |
| COc1ccc(COC(C)=O)cc1 | inconclusive: 7.08 µM [inhibitor, full curve, poor fit] |
| CCCCC1(C)Cc2ccccc2C(=S)N1 (stereo not given) | inconclusive: 44.7 µM [inhibitor, partial curve, poor fit] |

| Compound | Potency |
| --- | --- |
| C#CCN(C[C@@H]1[C@@H](OC(=O)NCc2ccco2)[C@@H](OC(=O)NCc2ccco2)Cn2c(=O)ccc(=O)n21)S(=O)(=O)c1ccc(C)cc1 | inactive |
| CCCCCCCCN1C(=O)[C@H](CC(=O)N2CCN(C(=O)c3ccco3)CC2)C[C@@]2(C(=O)OC)CCCCC=C12 | inconclusive: 89.1 µM [inhibitor, single point] |
| Cc1ccn2cc(-c3nonc3C)cc2c1 | inconclusive: 3.98 µM [inhibitor, full curve, poor fit] |
| Cc1[nH]c2ccccc2c1C(=O)CSc1ccc(Cl)cc1 | inactive |
| CSc1ccc(-c2nc(CN3CCN(C(C)=O)CC3)c(C)o2)cc1 | inactive |
| CCCCNc1c(-c2ccc(SC3CCCCC3)cc2)nc2ccccn12 | inconclusive: 50.1 µM [inhibitor, partial curve, poor fit] |
| CC1CCN(C(=S)c2cn(Cc3ccc(F)cc3)c3ccccc23)CC1 | inconclusive: 44.7 µM [inhibitor, partial curve, poor fit] |
| COC(=O)c1[nH]c(C)c(/C(O)=C2\C(=O)C(=O)N(CCN3CCOCC3)C2c2ccc(C)o2)c1C (stereo not given) | inconclusive: 31.6 µM [inhibitor, partial curve, poor fit] |
| CC1CCCN(C(=S)Nc2ccc(Nc3ccccc3)cc2)C1 (stereo not given) | inconclusive: 35.5 µM [inhibitor, partial curve, poor fit] |
| CC(=O)NC(NC(=S)Nc1ccc(C)cc1)C(Cl)(Cl)Cl (stereo not given) | inconclusive: 50.1 µM [inhibitor, partial curve, poor fit] |
| COc1ccc(NC(=O)Cn2c(=O)n(-c3cccc(C)c3)c(=O)c3c2c2cc(C)ccc2n3C)cc1OC | inconclusive: 7.94 µM [inhibitor, full curve, poor fit] |
| CC(=O)Nc1sc(N/N=C/c2ccccc2F)nc1-c1ccc(C)cc1 | inconclusive: 79.4 µM [inhibitor, partial curve, poor fit] |
| CC1CCC(NC(=O)C2CC(=O)Nc3cc(F)ccc32)CC1 (stereo not given) | inconclusive: 79.4 µM [inhibitor, single point] |
| CCOC(=O)c1c(NC(=O)c2ccccc2Cl)sc2c1CCc1ccccc1-2 | inconclusive: 35.5 µM [inhibitor, partial curve] |
| O=C(O)c1c[nH]c(=S)n1-c1ccc(F)cc1 | inconclusive: 31.6 µM [inhibitor, full curve, poor fit] |
| Cc1ccc(C)c(OCC(=O)O/N=C(\N)c2cccc([N+](=O)[O-])c2)c1 | inconclusive: 100 µM [inhibitor, partial curve, poor fit] |
| CC(C)NC(=S)N/N=C/C1=CCC2CC1C2(C)C (stereo not given) | active: 35.5 µM |
| CCOc1ccc(/C(O)=C2/C(=O)C(=O)N(c3cc(C)on3)C2c2ccc(C(=O)OC)cc2)cc1 (stereo not given) | inconclusive: 31.6 µM [inhibitor, partial curve, poor fit] |
| Cc1ccc(NC(=S)NNC=O)cc1 | inconclusive: 39.8 µM [inhibitor, partial curve, poor fit] |
| O=C(Nc1ccc(-c2ccc(Cl)cc2)cc1)c1ccncc1 | active: 7.08 µM |

| Compound | Potency |
| --- | --- |
| CCNc1c(NC(=O)COc2ccc(Cl)cc2)c(=O)oc2ccccc12 | inconclusive: 5.62 µM [inhibitor, partial curve, poor fit] |
| Cc1ccnc(NS(=O)(=O)c2ccc(NC(=O)Cc3c(F)cccc3Cl)cc2)n1 | inconclusive: 1.78 µM [inhibitor, full curve, poor fit] |
| COc1ccc(C(=O)N(CCc2ccccc2)Cc2ccccc2)c(OC)n1 | inactive |
| CC(C)OC(=O)/C(C#N)=C/c1c[nH]c2ccccc12 | inconclusive: 35.5 µM [inhibitor, partial curve, poor fit] |
| O=C(CSc1oc(-c2ccco2)nc1S(=O)(=O)c1ccc(Cl)cc1)NCC1CCCO1 (stereo not given) | active: 7.94 µM |
| CC[C@]12c3[nH]c4ccc(OC)cc4c3CCN1C(=O)C(CC(=O)NC(C)(C)C)C[C@@H]2C(=O)N1CCN(C(=O)c2ccco2)CC1 (stereo not given in full) | inconclusive: 126 µM [inhibitor, single point] |
| CN(C)/C=C/C(=O)c1ccc2noc(-c3ccc(F)cc3)c2c1 | inconclusive: 12.6 µM [inhibitor, full curve, poor fit] |
| CCOC(=O)C1=CN(c2ccc(F)cc2)C=C(C(=O)OCC)C1c1cccc(C(F)(F)F)c1 | inconclusive: 0.708 µM [inhibitor, single point] |
| COc1cc(Cl)c(NC(=O)c2cc(S(=O)(=O)N3CCOCC3)cn2C)c(OC)c1 | inactive |
| CCOC(=O)c1ccc(-c2ccc(/C=C(\C#N)C(=O)Nc3c(C)cccc3Cl)o2)cc1 | inconclusive: 112 µM [inhibitor, single point] |
| Cc1ccc(N(C(=O)c2ccc(S(=O)(=O)N3CCOCC3)cc2)C2C=CS(=O)(=O)C2)cc1C (stereo not given) | inactive |
| NCC1(N2CCCCC2)CCCCC1 | inconclusive: 44.7 µM [inhibitor, partial curve, poor fit] |
| CN(CCO)c1cc(N2CCC3(CC2)OCCO3)c2nonc2c1[N+](=O)[O-] | inconclusive: 89.1 µM [inhibitor, partial curve, poor fit] |
| COc1cc(CNC2CCCC2)cc(Cl)c1OCc1ccc(F)cc1 | inactive |
| COc1ccc(CN(C)C(=O)CSc2nnc(COc3ccc(Cl)cc3)n2C)cc1F | inconclusive: 2.24 µM [inhibitor, full curve, poor fit] |
| CCCCc1c(O)nc(SCC(=O)Nc2ccc(OC)cc2)n(-c2ccc(C)c(C)c2)c1=O | inconclusive: 7.94 µM [inhibitor, full curve, poor fit] |
| CSc1nnc(N2C(=O)C(O)=C(C(=O)c3ccco3)C2c2cccc(Cl)c2)s1 (stereo not given) | active: 39.8 µM |
| O=S(=O)(NCc1ccc(F)cc1)c1ccc2[nH]c3c(c2c1)CCCCC3 | inconclusive: 56.2 µM [inhibitor, partial curve, poor fit] |
| CC1CC(C)CN(S(=O)(=O)c2ccc(C(=O)N3CC(C)OC(C)C3)cc2)C1 (stereo not given) | inconclusive: 50.1 µM [inhibitor, partial curve, poor fit] |
| COc1ccc(/C=N/NC(=O)c2cc(C34CC5CC(CC(C5)C3)C4)[nH]n2)cc1O | inconclusive: 56.2 µM [inhibitor, partial curve, poor fit] |

2 consecutive compounds from above, for reference:

| Compound | Potency |
| --- | --- |
| CCOC(=O)c1c(NC(=O)c2ccccc2Cl)sc2c1CCc1ccccc1-2 | inconclusive: 35.5 µM [inhibitor, partial curve] |
| O=C(O)c1c[nH]c(=S)n1-c1ccc(F)cc1 | inconclusive: 31.6 µM [inhibitor, full curve, poor fit] |

From PubChem BioAssay AID1671190 (National Center for Advancing Translational Sciences (NCATS), 2021)
